The values that follow are results of earlier work, collected in patent US8241397B2, “Adsorptive gas sampler using ionic nano-droplets” (Honeywell International Inc., priority 2008, dated 2012).

Like-named read-outs stand apart in the source and are kept apart here.

Regarding `S1SSSSSSS1` [Sulfur], the “Capturing Efficiency (%)” value (concentration 50 ppm, solvent sprayed Water, Richards US 4,095,962) was “than 99%”.
In the case of `Cn1c(=O)c2c(ncn2C)n(C)c1=O` [Caffeine, reference compound], the “Capturing Efficiency (%)” value (concentration 10 ppt, solvent sprayed Water/MeOH, Fenn US 2004/0023411A1) is reported as “than 96%”.
